From PubChem BioAssay AID1508600 (Functional Genomics Laboratory (NCATS/FGL), 2020) come the findings set out here.

Among all 53,000 sequences or so, about 3,700 (7%) were called active.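 How the source made its calls: active means gene knockdowns whose robust z-score for IL-1 alpha signal is at least 2 or at most -2, so actives lie on both sides; inactive means the rest.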 This is one part of the list.

This test is described as follows: Components of the Cytosolic LPS Sensing Pathway: Gene Identification via Genome-wide siRNA Screen.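 Further: robust z of the log signal after scaling to non-targeting control siRNA wells of the plate.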 The following applies: RAW264.7 macrophages, IL-1a HTRF, actives lie on both sides, screened at 100 nM (by protocol), cells primed 5 h with Pam3CSK4 first. The procedure, abridged: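 Mouse macrophage line RAW264.7 is transfected with siRNA (100 nM final), grown 48h, primed with TLR ligand Pam3CSK4 5 h and given intracellular LipidA 24 h. IL-1a in supernatant is read by HTRF and viability by luminescence.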
On the technique in general: In TR-FRET formats the signal depends on donor and acceptor labels being close together.
As for CGUGGUCAAUAAUGUAAUATT against Stard4, the z-score is inactive: 0.535.

On to CGCAUGAUAACUAGAGAAUTT against Slitrk3, for which the z-score is inactive: -0.269.

For the sequence GCAUUUCACCGUCAUGAACTT against Ttll12, the z-score was active: -2.55.

Regarding GAGAGCAGAGCUUGAGACATT against Angptl6, the z-score was inactive: -0.561.

On to CCAUGUUAAUCCUGACAGCTT against Jade3, for which the z-score was inactive: -0.352.

Consider GGGACCUCAAAGUUGUCUATT against Ap1s1, for which the z-score was inactive: -0.841.

As to GCAGUGUUUUACGACUUGATT against Wscd1, the z-score was inactive: -0.355.

GGAGCAAGACAUAUAGAAATT against Spsb2: the z-score is active: 2.26.

Regarding CCCAAACCUGACCUAUGCATT against Pgm5, the z-score is inactive: -0.386.

On to GGAGGAAAGAAGAAAUAUCTT against Parvg, for which the z-score is inactive: 1.07.

With GGAAAAAGUGAAAACCUUGTT against Jun, the z-score is inactive: 0.389.

Take GGAAGUACAGUGGUCUCUGTT against Slc22a15: the z-score was inactive: -1.52.

Turning to GGAGGAUGCCAAAGAGAACTT against Zfp750, the z-score is inactive: 0.469.

As to CGUUGGUAUUUCCUUUGUATT against Slfn4, the z-score was inactive: -0.227.

For the sequence GGAAUGUUACAUUUCAGUUTT against Adam1a, the z-score is active: 2.15.

Consider GGUUCUGGCUCCUUGGACUTT against Oscar, for which the z-score is inactive: 1.28.

For GCACGAGAGUCUGAAGGAUTT against Mns1, the z-score was inactive: -0.2.

Turning to GGUUUUUUUUCCUUUCCCUTT against Frs3, the z-score was inactive: 0.387.

For GCAAUCCUCUUCACCCUCUTT against Olfr1495, the z-score is inactive: 0.508.

In the case of GUAUUGGAUACGAAGCAGATT against Defb2, the z-score was inactive: -0.154.

Take GCAGAUCAUUAAGAUCCGATT against Ruvbl1: the z-score is inactive: 0.764.

Consider GUCCUCGUAGGAACAGCAUTT against Olfr1265, for which the z-score is inactive: -1.52.

For GGGUUACCAGUUUGAGGAGTT against Pex5, the z-score was inactive: -0.374.

For GGAGACGAUCCAAGAAGAATT against Mapk1ip1, the z-score was inactive: -0.546.

In the case of GGAAGUAUGUGGAUAAAUUTT against Usp5, the z-score was inactive: -0.567.

On to GCUGGAUUCUCAAAGGGAATT against Agmo, for which the z-score is inactive: -0.0877.

On to GGAUAUAAAGGGAGCUUUUTT against Olfr397, for which the z-score was inactive: 1.18.

Regarding GGAGCUGGCAGACAUCACUTT against Ube2e1, the z-score was inactive: -0.442.

As to CGGACAAAUUGGAUGGUUUTT against Nck1, the z-score is inactive: 0.966.

For GCUUCUUCUGUGAACUUCCTT against Olfr854, the z-score was inactive: -0.939.

In the case of “GACAAGUUCUCAAGUAUCCTT against 1110006O24Rik”, the z-score was active: -2.02.

As to GCCACCUACUACGACAACATT against Hoxb3, the z-score was inactive: 0.633.

As to GGUGGAUAAUGUUUAAACATT against Vmn1r78, the z-score is inactive: 0.333.

For the sequence CGGCUUAGUGUAAUUUGCCTT against Diras2, the z-score is inactive: -0.146.

Turning to “GAAAUGCAAGACUCUGCACTT against 1700020L24Rik”, the z-score was active: -2.66.

As to GGCUUCAAUCCUGACGAGATT against Elfn2, the z-score was inactive: 0.72.

As for CCCAGCCGUAACUUAUGAGTT against Pga5, the z-score was inactive: -0.468.

For GGAACUUGAAAGAGAUUCUTT against Usp28, the z-score is inactive: -0.729.

With GGACAGUGACCAAUUAUUUTT against Tacr1, the z-score is inactive: -0.468.

Consider CGCAACCAGUUUGUUCCUGTT against Ugt1a6b, for which the z-score is inactive: -1.01.

In the case of GGUGAAUGCAGAGCUUUCATT against Aplf, the z-score is inactive: -1.12.

Consider CGAUGGUGAUUAUCUAAAATT against Tm4sf4, for which the z-score was inactive: -0.0694.

GGAACUUACAAGUAUCAGATT against Bhlhe22: the z-score was inactive: -0.436.

Take CCUUUCAUCACAAAGAAUGTT against Sppl2a: the z-score was inactive: -0.0436.

For the sequence GGGUCUCUAUGGAAUCAAUTT against Ldha, the z-score is active: 2.83.

In the case of GGAAUUUAAGGAAGCUGCUTT against Homer1, the z-score is inactive: -0.698.

CCCUCUACAAUAUUCUCUATT against Olfr1118: the z-score was inactive: -0.759.

Take CCCAGGAUUCUACUAGAUUTT against Pdzd7: the z-score is inactive: 0.754.

With CGCAGACAACAAAGUAGAATT against Sars, the z-score was inactive: 0.738.

In the case of GGCAGGUUUUUGAACUGGUTT against Olfr725, the z-score was active: 2.28.

GGACCGCGUUCAAGAAGAATT against Cyp2c37: the z-score was active: 2.17.

Take CCCUAGAGGCAGAUGCAAATT against Gm5478: the z-score was inactive: 0.246.

As to CCUUGUUCCCACUUUUGUATT against Cirbp, the z-score is inactive: 1.26.

With “GGAUUCUCCUUUACCUUUGTT against B930095G15Rik”, the z-score is inactive: 0.0151.

As to GUCCACGAAACUAAAACUGTT against Prl3d1, the z-score is inactive: -0.357.

With GGAAAUCCGAAAUGAGCUGTT against Ssh1, the z-score was inactive: 1.87.

In the case of “GGGAGUAGACAGUUAGAAGTT against 2900092C05Rik”, the z-score was inactive: 0.852.

As for GGUCCUACAGGGAAUACCGTT against Habp4, the z-score was inactive: -0.0289.

Turning to GCGGAAUCAUCAGAAACAATT against Acsl6, the z-score was inactive: -0.857.

As to GGUCAAAUAAAGCUGUGGUTT against Uba52, the z-score was inactive: -0.562.

Turning to CCAGAUUAAGUUUAUAGCCTT against Uros, the z-score is inactive: -0.147.

As to GGGUAAUGACAUUAGCAGUTT against Pebp1, the z-score was inactive: -1.31.

Consider GCAUUUAUCACAUGGACAUTT against Tle4, for which the z-score was inactive: 1.11.

As for GGAACAAGAGAAGAUCCUCTT against Cd209b, the z-score was inactive: 1.01.

On to GCACUGCUGGCUAUUGGAATT against Golt1b, for which the z-score was inactive: -0.494.

Turning to GGACAACCAGAAAUGUAUGTT against Grid1, the z-score was inactive: -1.65.

In the case of UGAUUUCAACAAGUGGCAUTT against Olfr730, the z-score is inactive: -0.686.

For GGAUUUUGGCCUUUCCAUUTT against Ly86, the z-score is inactive: 0.375.

For GGAAAAGAUACGGAAGAUUTT against Acpp, the z-score is inactive: 0.485.

For GGCUACGCUGACUAUGUCUTT against Creg1, the z-score was inactive: -0.77.

As for CCUGAGACUAGACAGAUGGTT against Hmga1, the z-score is inactive: 0.61.

On to GGCGAGUUCAGGAGUUUACTT against Fmnl1, for which the z-score is active: 2.55.

GGACACACAAGAGAAGAUCTT against Thop1: the z-score is inactive: -0.408.

For the sequence GGAUGUCCUUGACUUUAAATT against Atp6v0a4, the z-score was inactive: 0.704.

As to CCAAUGAAGAUCCUUCCACTT against Gabra3, the z-score is inactive: 1.61.

With CGUUGAUGUGUAUUUAAACTT against Vopp1, the z-score was inactive: 0.704.

As to GCACAUGCAUGGCUCUAAGTT against Hinfp, the z-score is inactive: 0.779.

As for GCGAGUAUUCAGAUCAUACTT against Wsb2, the z-score is inactive: -1.46.

Regarding GGAAAUUUUUGGUGAAAGGTT against Dnajb7, the z-score is inactive: 0.551.

Regarding GCCCAGUCUUCUGAUGAACTT against Rpain, the z-score was inactive: -0.901.

For CCUGACUCCUACUCAAUUATT against Hcrtr1, the z-score was inactive: -0.701.

As to GGAUACGAAAACGACUGCATT against Pdpr, the z-score is active: 2.05.

Take CGAUCCAGACUUUGUCCCUTT against Dzip1l: the z-score was inactive: -0.186.

As to CCACUGAAGACGUGAAGCUTT against Cenps, the z-score was inactive: -1.09.

Turning to GGAUGUGAAGGAUGGGAAGTT against Rps18, the z-score is inactive: 1.11.

In the case of GGCGCAUCCAAACUUUGAUTT against Kcnq3, the z-score was inactive: -0.72.

In the case of GGUGUCAAUCAUGUUGUCATT against Susd2, the z-score is inactive: -1.69.

Regarding GGAAGAAAUGAUGAAUGACTT against Chmp2a, the z-score is active: 2.36.

As to GGUCAUCCUGGACAAUCUCTT against Syt6, the z-score is inactive: -1.07.

As to GGAAAGAGAGAAGAAAUAGTT against Lmo2, the z-score is inactive: 0.438.

Turning to GCUUAGAGCUUCAUAUAGCTT against Tlr12, the z-score is inactive: -0.367.

On to GCUCCUCUCAGGUGUACGATT against B9d2, for which the z-score is active: 2.23.

As for GGAUUCAAGGAAGGCCUUCTT against Myl7, the z-score was inactive: -0.146.

Turning to GGCUCUUUGAAGUACUACATT against Ercc1, the z-score is inactive: 1.12.

For the sequence GCCCAAAAAGGAGGGUAGUTT against Aebp1, the z-score is inactive: -0.121.

Take CCAGUGGUCUGAAUCAGAUTT against Fbxw11: the z-score was inactive: -1.51.

Take GCAUGGGAUUGGUUCAUGATT against Nmi: the z-score is inactive: -0.324.

Consider GGAAUCAGCAAACUCAACCTT against Rnase11, for which the z-score is inactive: -0.748.

GGUUCCUUAAACAUUCAGATT against Tspan31: the z-score is active: 2.28.

As to GGUAUUGUUUGGUGACAAATT against Lipk, the z-score was inactive: -1.82.

Take CGUUUGUUGAAAGAAGAAGTT against Cisd1: the z-score was inactive: 0.0701.

Take CCGAAAACAAUAACUCCUCTT against Six1: the z-score is inactive: 0.367.

Take GGCACAAUGGACUCAGUCATT against Tubb2b: the z-score was inactive: -0.91.

As for GGUGAAGUUUUUCUACUUGTT against Tram2, the z-score was inactive: -0.915.

As to GGACAAGUUUAACAGGAAUTT against Apoa4, the z-score is inactive: -0.508.

GGAAUGGUUGCCUCUGUUATT against Olfr1182: the z-score was inactive: -0.0442.

In the case of CCCUCGUUGCUUUCUGCAUTT against Slc16a8, the z-score is inactive: 0.0792.
